Assay results published in PMC8500422.
No constants are given. Whether binding was seen depends on the method and setting. In cells and extracts the contact can be indirect. Tags and fused reporters may be left off the sequences shown.

Experiments:
[1] = molecular target: T1, EGFP-fused BROMI(1–1,101) (human) (UniProt Q96NH3); assay: co-IP; the beads of the VIP assay (EGFP-fused protein precipitated with GST-tagged anti-GFP Nb from HEK293T lysates) subjected to SDS-PAGE and immunoblotting with anti-mChe or anti-GFP antibody
T1 sequence: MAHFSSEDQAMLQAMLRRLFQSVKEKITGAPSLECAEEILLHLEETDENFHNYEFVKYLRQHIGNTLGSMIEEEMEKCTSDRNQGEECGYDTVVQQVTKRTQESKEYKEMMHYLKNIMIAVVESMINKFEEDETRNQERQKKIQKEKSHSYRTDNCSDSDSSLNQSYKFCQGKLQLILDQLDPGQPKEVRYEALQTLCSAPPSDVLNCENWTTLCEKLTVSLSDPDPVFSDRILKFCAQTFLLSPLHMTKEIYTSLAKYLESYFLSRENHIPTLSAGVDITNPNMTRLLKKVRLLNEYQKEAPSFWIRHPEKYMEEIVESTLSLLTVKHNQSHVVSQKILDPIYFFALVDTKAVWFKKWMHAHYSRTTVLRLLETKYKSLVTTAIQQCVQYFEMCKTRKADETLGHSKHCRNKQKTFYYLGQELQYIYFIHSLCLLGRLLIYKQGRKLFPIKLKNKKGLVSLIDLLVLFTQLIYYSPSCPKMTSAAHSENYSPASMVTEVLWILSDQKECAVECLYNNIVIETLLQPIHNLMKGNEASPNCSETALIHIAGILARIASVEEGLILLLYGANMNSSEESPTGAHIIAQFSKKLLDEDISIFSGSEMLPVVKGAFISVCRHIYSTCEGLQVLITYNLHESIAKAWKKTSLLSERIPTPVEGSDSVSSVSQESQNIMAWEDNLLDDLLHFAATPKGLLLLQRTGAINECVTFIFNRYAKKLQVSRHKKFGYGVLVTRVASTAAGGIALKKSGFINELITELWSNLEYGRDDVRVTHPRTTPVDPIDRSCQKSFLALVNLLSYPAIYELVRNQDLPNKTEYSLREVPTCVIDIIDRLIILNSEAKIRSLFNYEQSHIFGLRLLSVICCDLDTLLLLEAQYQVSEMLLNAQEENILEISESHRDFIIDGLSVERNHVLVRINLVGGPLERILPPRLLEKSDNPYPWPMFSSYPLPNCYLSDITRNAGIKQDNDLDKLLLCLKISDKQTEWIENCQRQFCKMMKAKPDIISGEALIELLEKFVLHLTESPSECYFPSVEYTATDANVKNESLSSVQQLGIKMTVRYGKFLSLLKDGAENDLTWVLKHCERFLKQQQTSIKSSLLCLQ

[2] = molecular target: T2, EGFP-fused BROMI(1–1,190) (human) (UniProt Q96NH3); assay: co-IP; visible immunoprecipitation (VIP) assay: lysates of HEK293T cells coexpressing EGFP-fused and mChe-fused proteins (HMDEKN buffer: 10 mM HEPES pH 7.4, 5 mM MgSO4, 1 mM DTT, 0.5 mM EDTA, 25 mM KCl, 0.05% NP-40), precipitated with GST-tagged anti-GFP Nb on glutathione–Sepharose 4B beads, 1 h at 4°C; red fluorescence on the washed beads observed under a microscope
T2 sequence: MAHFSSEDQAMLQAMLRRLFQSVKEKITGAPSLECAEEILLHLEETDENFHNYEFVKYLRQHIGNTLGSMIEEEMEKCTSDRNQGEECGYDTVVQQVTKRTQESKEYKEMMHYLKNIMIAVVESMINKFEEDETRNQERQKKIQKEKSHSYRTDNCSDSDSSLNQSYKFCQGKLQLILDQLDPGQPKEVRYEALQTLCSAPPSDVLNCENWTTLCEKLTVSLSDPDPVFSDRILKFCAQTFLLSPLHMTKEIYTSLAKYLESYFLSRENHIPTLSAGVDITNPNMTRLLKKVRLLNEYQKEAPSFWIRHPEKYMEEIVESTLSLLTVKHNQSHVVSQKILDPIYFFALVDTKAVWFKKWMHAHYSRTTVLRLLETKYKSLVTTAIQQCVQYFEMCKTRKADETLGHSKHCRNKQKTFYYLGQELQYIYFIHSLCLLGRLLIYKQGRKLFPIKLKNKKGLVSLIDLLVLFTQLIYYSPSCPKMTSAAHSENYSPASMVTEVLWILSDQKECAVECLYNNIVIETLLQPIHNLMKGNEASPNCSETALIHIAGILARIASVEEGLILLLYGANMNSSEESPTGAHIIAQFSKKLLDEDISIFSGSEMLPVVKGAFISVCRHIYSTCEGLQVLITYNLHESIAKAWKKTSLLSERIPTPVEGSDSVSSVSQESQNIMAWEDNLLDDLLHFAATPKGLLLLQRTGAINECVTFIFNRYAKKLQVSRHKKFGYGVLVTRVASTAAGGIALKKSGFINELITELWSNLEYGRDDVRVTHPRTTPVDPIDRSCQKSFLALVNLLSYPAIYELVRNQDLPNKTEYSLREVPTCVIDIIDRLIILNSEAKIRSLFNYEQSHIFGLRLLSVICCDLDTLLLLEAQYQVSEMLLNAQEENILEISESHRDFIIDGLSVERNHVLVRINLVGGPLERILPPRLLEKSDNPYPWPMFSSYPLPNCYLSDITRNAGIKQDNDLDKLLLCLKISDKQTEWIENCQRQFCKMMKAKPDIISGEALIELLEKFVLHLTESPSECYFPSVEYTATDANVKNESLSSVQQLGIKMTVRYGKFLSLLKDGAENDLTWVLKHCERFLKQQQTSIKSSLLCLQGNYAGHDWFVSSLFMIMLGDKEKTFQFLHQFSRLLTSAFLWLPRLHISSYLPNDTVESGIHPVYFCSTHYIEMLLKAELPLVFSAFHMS

[3] = molecular target: T1, EGFP-fused BROMI(1–1,101) (human); assay: as above

Measured: binding

CCRK-mChe (from UniProt Q8IZL9-1 1-346)
no binding: all assays above
